Paper doi:10.64898/2025.12.25.696488

Chains of the proteins cited; added tags and fusions are not shown. Lines headed by an entry give the natural chain unless they say otherwise; changes in a name come on top.
UniProt Q20118: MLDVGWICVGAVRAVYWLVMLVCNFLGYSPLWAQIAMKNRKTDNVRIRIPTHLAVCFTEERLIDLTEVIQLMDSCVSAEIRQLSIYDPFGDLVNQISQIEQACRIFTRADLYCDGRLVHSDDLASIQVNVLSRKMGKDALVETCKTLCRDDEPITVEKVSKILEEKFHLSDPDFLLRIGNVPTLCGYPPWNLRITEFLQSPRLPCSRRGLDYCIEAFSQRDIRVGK

Molecular target: T1, STT-3::mCherry (C. elegans) (UniProt P46975)
T1 sequence: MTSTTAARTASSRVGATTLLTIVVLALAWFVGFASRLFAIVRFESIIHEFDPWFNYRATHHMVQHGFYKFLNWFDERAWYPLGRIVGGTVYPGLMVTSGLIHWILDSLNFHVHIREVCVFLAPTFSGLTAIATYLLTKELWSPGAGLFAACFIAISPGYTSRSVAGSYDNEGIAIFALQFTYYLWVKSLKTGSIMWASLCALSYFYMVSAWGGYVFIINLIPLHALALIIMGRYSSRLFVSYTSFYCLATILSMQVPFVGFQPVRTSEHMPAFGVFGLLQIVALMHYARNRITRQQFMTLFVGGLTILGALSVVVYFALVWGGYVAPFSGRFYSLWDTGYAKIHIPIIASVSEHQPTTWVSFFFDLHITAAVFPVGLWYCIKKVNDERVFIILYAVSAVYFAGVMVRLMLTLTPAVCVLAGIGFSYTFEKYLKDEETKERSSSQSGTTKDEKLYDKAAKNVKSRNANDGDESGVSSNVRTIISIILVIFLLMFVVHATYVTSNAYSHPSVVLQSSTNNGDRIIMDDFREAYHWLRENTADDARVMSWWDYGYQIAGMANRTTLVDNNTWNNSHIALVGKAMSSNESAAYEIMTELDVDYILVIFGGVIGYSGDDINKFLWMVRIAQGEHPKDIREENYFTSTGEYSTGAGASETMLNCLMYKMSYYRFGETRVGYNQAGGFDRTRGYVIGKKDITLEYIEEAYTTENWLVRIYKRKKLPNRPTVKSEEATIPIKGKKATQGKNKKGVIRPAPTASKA
Experiment: co-IP

## GFP::NUS-1 (from UniProt Q20118)
  binding: binds

Results are given in words; binding and its absence hold for the method and conditions named. In cells and extracts the contact can be indirect. Binding can be weak; no strength is given.
